# The supplement of paper PMC10849652
# Amino acid sequences for entries named in this document (tags omitted). A change or cut given only in a name is not applied to a line headed by its entry.
# UniProt Q8N300: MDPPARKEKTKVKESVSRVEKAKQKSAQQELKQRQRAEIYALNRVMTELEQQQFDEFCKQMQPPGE
# UniProt Q15543, whole entry, looked up: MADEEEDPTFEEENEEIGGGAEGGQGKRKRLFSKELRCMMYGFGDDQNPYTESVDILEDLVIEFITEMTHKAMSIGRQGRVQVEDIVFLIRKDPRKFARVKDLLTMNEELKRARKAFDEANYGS
# UniProt P08842: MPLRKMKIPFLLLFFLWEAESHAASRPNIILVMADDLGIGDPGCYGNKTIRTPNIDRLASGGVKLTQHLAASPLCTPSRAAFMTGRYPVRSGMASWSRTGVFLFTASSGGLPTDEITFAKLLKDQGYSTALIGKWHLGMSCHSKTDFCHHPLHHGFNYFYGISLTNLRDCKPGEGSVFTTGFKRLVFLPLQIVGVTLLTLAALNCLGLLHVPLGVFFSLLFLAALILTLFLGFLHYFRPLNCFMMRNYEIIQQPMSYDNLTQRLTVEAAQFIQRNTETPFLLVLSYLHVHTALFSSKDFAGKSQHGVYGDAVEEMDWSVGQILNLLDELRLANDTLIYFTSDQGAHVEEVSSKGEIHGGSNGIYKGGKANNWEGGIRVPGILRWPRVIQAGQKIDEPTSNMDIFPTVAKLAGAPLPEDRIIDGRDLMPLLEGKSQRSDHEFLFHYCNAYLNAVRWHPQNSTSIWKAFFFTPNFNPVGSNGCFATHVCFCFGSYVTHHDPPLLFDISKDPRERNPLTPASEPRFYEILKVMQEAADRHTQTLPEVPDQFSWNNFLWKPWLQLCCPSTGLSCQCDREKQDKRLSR
# UniProt Q5VWG9, whole entry, looked up: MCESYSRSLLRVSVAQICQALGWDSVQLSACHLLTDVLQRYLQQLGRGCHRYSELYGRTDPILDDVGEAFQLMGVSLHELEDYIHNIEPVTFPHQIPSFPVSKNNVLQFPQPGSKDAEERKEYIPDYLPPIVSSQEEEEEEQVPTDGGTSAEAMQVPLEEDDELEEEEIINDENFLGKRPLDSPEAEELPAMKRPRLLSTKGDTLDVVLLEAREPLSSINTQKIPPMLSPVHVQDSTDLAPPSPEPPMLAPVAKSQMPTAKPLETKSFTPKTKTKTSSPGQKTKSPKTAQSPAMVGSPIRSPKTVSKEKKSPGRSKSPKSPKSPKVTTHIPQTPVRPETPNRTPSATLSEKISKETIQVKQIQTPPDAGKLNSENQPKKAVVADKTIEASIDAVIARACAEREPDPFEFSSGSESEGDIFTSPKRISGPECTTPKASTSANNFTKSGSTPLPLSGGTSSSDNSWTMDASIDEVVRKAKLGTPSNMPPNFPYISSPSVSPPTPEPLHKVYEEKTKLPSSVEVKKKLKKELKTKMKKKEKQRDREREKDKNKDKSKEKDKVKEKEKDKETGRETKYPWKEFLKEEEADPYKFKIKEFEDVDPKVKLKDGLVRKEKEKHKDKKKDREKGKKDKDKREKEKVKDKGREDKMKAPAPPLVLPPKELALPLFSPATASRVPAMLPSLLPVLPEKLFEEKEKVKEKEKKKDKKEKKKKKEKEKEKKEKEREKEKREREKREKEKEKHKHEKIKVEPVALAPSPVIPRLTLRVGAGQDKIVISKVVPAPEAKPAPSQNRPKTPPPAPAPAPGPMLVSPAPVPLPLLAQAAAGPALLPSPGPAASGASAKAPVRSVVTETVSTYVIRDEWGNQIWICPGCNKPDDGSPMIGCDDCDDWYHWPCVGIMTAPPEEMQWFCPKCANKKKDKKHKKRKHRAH
# UniProt Q5T011: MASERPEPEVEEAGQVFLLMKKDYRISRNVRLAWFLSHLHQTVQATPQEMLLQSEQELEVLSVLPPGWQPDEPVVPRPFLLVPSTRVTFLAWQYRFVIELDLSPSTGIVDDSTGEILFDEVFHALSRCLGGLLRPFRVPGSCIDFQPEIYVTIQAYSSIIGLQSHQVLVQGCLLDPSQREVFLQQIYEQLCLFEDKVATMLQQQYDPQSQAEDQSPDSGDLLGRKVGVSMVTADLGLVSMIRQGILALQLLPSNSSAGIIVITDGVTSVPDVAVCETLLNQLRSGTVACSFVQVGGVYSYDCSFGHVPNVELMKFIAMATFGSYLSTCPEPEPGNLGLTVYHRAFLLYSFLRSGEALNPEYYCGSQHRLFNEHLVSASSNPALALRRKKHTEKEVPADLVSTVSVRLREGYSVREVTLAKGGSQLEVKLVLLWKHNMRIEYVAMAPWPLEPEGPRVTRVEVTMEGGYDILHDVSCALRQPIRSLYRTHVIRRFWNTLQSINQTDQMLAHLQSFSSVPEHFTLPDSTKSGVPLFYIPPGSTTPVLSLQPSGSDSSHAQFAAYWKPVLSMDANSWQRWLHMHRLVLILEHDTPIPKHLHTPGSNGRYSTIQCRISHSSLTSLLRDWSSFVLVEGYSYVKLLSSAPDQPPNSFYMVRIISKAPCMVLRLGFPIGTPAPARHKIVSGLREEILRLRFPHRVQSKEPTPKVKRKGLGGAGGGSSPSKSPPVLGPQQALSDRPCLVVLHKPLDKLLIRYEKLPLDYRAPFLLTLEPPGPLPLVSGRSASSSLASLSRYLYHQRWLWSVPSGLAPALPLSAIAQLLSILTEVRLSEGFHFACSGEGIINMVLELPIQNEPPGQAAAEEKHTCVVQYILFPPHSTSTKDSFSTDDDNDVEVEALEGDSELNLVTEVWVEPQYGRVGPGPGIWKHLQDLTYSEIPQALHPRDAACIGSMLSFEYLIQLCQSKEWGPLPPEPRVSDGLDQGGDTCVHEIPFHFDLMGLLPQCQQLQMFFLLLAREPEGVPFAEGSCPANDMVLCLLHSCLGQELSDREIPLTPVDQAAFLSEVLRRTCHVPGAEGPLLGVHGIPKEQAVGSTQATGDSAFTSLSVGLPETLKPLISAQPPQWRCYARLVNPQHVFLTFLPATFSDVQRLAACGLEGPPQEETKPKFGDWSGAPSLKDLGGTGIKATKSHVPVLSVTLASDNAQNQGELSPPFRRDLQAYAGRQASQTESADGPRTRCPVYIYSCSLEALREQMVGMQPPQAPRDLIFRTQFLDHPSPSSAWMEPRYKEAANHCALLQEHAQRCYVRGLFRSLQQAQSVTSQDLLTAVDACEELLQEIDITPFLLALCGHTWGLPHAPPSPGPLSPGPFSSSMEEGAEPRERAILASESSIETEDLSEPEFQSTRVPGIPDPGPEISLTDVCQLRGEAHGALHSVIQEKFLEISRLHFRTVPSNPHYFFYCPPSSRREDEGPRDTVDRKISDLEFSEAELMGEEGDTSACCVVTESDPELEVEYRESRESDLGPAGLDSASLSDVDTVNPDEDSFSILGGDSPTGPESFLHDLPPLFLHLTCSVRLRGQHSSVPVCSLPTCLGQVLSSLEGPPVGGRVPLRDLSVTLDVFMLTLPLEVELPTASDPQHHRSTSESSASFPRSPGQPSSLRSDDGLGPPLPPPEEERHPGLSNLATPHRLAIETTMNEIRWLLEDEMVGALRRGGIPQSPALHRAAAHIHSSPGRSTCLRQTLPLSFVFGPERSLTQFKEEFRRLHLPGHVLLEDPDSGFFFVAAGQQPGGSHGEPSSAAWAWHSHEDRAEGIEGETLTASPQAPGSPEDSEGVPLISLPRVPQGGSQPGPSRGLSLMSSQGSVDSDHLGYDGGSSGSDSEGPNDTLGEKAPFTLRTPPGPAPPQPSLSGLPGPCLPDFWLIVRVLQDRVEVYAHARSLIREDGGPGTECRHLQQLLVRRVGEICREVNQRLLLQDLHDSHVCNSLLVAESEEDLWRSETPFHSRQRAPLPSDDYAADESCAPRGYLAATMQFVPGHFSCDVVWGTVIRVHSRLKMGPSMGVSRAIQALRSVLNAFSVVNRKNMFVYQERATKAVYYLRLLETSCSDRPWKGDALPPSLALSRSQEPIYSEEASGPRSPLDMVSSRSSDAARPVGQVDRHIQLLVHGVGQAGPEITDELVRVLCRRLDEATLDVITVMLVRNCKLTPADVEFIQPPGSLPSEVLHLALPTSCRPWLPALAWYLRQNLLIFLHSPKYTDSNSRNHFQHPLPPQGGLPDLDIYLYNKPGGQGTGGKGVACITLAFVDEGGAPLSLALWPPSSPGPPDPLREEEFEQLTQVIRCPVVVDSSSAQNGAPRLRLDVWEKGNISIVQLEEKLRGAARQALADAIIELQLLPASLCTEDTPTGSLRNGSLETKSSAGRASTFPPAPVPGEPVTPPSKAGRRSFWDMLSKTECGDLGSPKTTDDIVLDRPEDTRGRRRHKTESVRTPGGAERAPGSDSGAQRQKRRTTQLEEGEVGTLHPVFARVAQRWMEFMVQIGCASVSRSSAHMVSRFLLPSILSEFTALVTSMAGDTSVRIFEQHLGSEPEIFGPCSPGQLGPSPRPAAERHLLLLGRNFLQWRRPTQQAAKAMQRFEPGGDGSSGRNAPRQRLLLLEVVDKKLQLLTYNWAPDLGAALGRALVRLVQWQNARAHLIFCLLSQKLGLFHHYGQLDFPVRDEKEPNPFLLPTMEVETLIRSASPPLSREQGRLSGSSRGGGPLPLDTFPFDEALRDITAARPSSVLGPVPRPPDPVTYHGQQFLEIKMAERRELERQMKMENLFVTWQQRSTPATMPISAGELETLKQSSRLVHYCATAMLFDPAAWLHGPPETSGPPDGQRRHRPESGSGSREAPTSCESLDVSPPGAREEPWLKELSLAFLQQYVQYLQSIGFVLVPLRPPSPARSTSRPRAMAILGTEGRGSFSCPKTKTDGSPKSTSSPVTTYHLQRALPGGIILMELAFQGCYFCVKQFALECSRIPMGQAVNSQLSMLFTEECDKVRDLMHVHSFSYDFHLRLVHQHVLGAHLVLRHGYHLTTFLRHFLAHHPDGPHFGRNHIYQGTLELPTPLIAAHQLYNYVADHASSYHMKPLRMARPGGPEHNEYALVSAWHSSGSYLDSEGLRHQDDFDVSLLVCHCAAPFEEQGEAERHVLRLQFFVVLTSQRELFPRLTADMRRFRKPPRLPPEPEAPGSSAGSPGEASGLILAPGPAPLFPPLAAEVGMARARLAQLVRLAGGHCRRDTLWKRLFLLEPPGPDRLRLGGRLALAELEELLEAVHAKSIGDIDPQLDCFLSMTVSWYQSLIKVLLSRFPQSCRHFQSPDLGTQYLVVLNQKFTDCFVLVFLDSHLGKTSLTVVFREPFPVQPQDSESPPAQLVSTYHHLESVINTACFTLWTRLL
# UniProt Q6NVH7: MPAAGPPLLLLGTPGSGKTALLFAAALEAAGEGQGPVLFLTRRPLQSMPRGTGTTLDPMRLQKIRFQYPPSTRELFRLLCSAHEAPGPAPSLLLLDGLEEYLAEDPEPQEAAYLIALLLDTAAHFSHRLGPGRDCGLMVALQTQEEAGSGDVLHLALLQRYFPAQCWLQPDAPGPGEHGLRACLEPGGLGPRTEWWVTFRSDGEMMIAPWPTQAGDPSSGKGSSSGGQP
# UniProt O75478: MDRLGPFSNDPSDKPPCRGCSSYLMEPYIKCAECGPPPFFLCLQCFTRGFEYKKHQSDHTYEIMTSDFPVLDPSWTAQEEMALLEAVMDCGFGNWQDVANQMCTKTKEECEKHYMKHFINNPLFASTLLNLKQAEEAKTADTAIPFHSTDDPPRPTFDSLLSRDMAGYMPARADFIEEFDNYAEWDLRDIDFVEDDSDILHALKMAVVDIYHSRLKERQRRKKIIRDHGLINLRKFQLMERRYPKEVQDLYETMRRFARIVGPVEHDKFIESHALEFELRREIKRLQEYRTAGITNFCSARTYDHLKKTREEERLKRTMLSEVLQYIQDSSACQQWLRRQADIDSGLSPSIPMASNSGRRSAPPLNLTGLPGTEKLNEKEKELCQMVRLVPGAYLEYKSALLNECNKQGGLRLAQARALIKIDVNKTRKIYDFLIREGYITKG
# UniProt P0DMM9: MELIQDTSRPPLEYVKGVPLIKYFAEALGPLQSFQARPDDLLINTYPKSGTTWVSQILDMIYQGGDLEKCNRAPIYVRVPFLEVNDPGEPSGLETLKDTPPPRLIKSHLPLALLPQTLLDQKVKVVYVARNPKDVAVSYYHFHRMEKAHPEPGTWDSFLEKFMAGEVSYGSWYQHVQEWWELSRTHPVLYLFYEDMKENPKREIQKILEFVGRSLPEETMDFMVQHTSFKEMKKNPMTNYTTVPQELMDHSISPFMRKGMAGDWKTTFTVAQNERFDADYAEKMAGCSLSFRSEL
# UniProt Q9H668: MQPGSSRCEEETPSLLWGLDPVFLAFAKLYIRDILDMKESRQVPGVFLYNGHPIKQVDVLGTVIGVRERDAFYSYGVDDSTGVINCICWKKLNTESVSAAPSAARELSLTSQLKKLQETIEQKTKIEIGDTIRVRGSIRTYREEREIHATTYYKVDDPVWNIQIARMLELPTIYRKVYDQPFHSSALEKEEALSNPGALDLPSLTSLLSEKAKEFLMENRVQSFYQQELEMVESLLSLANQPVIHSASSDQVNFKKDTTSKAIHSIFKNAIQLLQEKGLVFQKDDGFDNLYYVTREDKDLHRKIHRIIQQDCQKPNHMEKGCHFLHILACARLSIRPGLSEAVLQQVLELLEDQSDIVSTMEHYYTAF
# This is one part of the list.
# Compound: Cn1cncc1[C@@](N)(c1ccc(Cl)cc1)c1ccc2c(c1)c(-c1cccc(Cl)c1)cc(=O)n2C [tipifarnib]
# Test: log2 fold change, soluble protein after heating vs DMSO (PISA); higher = thermal stabilisation; K562 lysate, 10 uM; active = over 0.2 and 3.5 SD of the protein, either way, in both replicates (recomputed)
# Outline: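 Quantification was by TMTpro 16plex LC-MS/MS with equalised channel sums, applied to the supernatant after 21,000xg for 90 min. Samples were crude K562 extract at 1 mg/mL protein in PBS pH 7.4 with 1 mM MgCl2, treated with 10 μM compound for 30 min, heated for 3 min across 48°C-58°C, pooled and brought to 0.5% NP-40 at 4°C. Values are log-two fold changes in thermal stability relative to solvent controls, from duplicates.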
row,Target,log2 fold change
1,SVBP (UniProt Q8N300),inactive: -0.006
2,TAF13 (UniProt Q15543),inactive: -0.042
3,STS (UniProt P08842),inactive: 0.311
4,TAF3 (UniProt Q5VWG9),inactive: -0.003
5,STK19 (UniProt P49842),inactive: -0.197
6,TAF1C (UniProt Q15572),inactive: 0.141
7,STK17A (UniProt Q9UEE5),inactive: -0.387
8,SYNCRIP isoform 3 (UniProt O60506),inactive: -0.003
9,SYNGR2 (UniProt K7EJ35),inactive: 0.05
10,TAF1A (UniProt Q15573),inactive: -0.136
11,STK3 isoform 2 (UniProt Q13188),inactive: -0.014
12,SZT2 (UniProt Q5T011),inactive: -0.019
13,STON1 isoform 2 (UniProt Q9Y6Q2),inactive: 0.095
14,STK38L (UniProt Q9Y2H1),inactive: 0.04
15,SWSAP1 (UniProt Q6NVH7),inactive: 0.062
16,TADA2A (UniProt O75478),inactive: 0.017
17,SULT1A3 isoform 3 (UniProt P0DMM9),inactive: 0.036
18,STN1 (UniProt Q9H668),inactive: 0.005
19,STXBP6 (UniProt Q8NFX7),inactive: 0.013

# Another view of part of the listing above.
row	Target	log2 fold change
8	SYNCRIP isoform 3 (UniProt O60506)	inactive: -0.003
13	STON1 isoform 2 (UniProt Q9Y6Q2)	inactive: 0.095
